Measurements reported in PubChem BioAssay AID720505 (Drosophila RNAi Screening Center, 2013)
Screen: 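Genes needed for store-operated calcium entry in fly cells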 (primary screen). System: Drosophila S2R+ cells. Reagent: long dsRNA against Drosophila genes. Challenge: thapsigargin (2 µM) in calcium-free buffer to empty internal stores, then 2 mM calcium added back. Detection: 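Fluo-4 signal in 384-well plates read on a FLIPR after thapsigargin (2 µM, calcium-free) store depletion and 2 mM calcium add-back; unnormalised mean endpoint per well; screen run twice, selected wells retested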. Direction: calcium signal and retest calcium signal: higher = more calcium entry after store depletion. Active means: 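About 1500 genes called as lowering calcium entry, by varying amounts, judged against per-plate control wells with STIM1 as positive and Rho1 as negative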. Meaning of the calls: active = called as lowering calcium entry; inactive = not called.
In all, the deposit lists about 20,000 reagents; this is an unselected part of those with a known target gene and a result. Over the whole deposit, about 2,100 (10%) got an active call. 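Raw plate signals without normalisation; calls rest on control-based scores that were not deposited; replicate 2 separates called from uncalled poorly.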 Entries without a mark were called inactive. A plus sign joins genes that one reagent is predicted to hit. Not stated in the record: the amount of reagent, the time to read-out.

The opening 7 entries, ahead of the listing:
| gene knocked down | dsRNA | calcium signal, replicate 1 | calcium signal, replicate 2 | retest calcium signal, replicate 1 | retest calcium signal, replicate 2 |
| --- | --- | --- | --- | --- | --- |
| Epp (Ecdysteroid phosphate phosphatase) | DRSC14607 | 150 | 163 | – | – |
| CG14483 | DRSC06455 | 116 | 118 | – | – |
| Oatp30B (Organic anion transporting polypeptide 30B) | DRSC02727 | 71.5 | 86.3 | – | – |
| Mgat1 | DRSC07463 | 66.9 | 109 | – | – |
| Mst84Db (Male-specific RNA 84Db) | DRSC12542 | 106 | 148 | – | – |
| Mst84Db (Male-specific RNA 84Db) | DRSC12598 | 82.8 | 87.7 | – | – |
| stj (straightjacket) | DRSC06124 | 214 | 212 | – | – |

Main list, repeating the preview:
| gene knocked down | dsRNA | calcium signal, replicate 1 | calcium signal, replicate 2 | retest calcium signal, replicate 1 | retest calcium signal, replicate 2 |
| --- | --- | --- | --- | --- | --- |
| Epp (Ecdysteroid phosphate phosphatase) | DRSC14607 | 150 | 163 | – | – |
| CG14483 | DRSC06455 | 116 | 118 | – | – |
| Oatp30B (Organic anion transporting polypeptide 30B) | DRSC02727 | 71.5 | 86.3 | – | – |
| Mgat1 | DRSC07463 | 66.9 | 109 | – | – |
| Mst84Db (Male-specific RNA 84Db) | DRSC12542 | 106 | 148 | – | – |
| Mst84Db (Male-specific RNA 84Db) | DRSC12598 | 82.8 | 87.7 | – | – |
| stj (straightjacket) | DRSC06124 | 214 | 212 | – | – |
| NT1 (Neurotrophin 1) | DRSC08530 | 65.7 | 66.5 | – | – |
| NT1 (Neurotrophin 1) | DRSC22895 | 119 | 200 | – | – |
| CG43867 | DRSC17836 | 105 | 126 | – | – |
| CG43867 | DRSC17837 | 128 | 131 | – | – |
| CG43867 | DRSC17942 | 140 | 127 | 110 | 117 |
| CG43867 | DRSC17943 | 82.4 | 167 | – | – |
| RpL10 (Ribosomal protein L10) | DRSC11947 | 87.4 (active) | 79.7 | – | – |
| Ank (Ankyrin) | DRSC17127 | 107 | 104 | – | – |
| MICU3 (Mitochondrial calcium uptake 3) | DRSC15613 | 140 | 267 | – | – |
| CG2063 | DRSC06811 | 116 | 110 | – | – |
| CG13712 | DRSC08321 | 80.6 (active) | 61.2 | – | – |
| TfIIS (RNA polymerase II elongation factor) | DRSC03455 | 156 | 113 | – | – |
| loopin-1 | DRSC06888 | 190 | 108 | – | – |
| Yeti | DRSC21138 | 107 | 125 | – | – |
| RpS2 (Ribosomal protein S2) | DRSC03614 | 79.2 | 83.4 | – | – |
| CG8907 | DRSC16453 | 172 | 313 | – | – |
| CG6961 + CG18259 | DRSC19799 | 86.2 | 93.6 | – | – |
| CG6961 + CG18259 | DRSC20019 | 157 | 128 | – | – |
| RluA-2 (RluA pseudouridine synthase 2) | DRSC02939 | 90.1 | 106 | – | – |
| mwh (multiple wing hairs) | DRSC08382 | 67.4 | 115 | – | – |
| Snx1 (Sorting nexin 1) | DRSC00531 | 199 | 157 | – | – |
| ND-39 (NADH dehydrogenase (ubiquinone) 39 kDa subunit) | DRSC11791 | 118 | 112 | – | – |
| Tmtc3 (Transmembrane O-mannosyltransferase targeting cadherins 3) | DRSC04444 | 167 | 90.2 | – | – |
| CG10062 | DRSC05960 | 166 | 101 | – | – |
| CG10062 | DRSC22535 | 95.4 | 151 | – | – |
| CG32075 | DRSC10622 | 137 | 126 | – | – |
| CG1806 | DRSC19787 | 159 | 82.3 | – | – |
| CG5556 | DRSC00687 | 149 | 172 | – | – |
| CG8093 | DRSC07078 | 111 | 143 | – | – |
| Smn (survival motor neuron) | DRSC10223 | 97.3 | 116 | – | – |
| CG10011 | DRSC14174 | 111 | 145 | – | – |
| Pcp (Pupal cuticle protein) | DRSC03395 | 219 | 108 | – | – |
| CG4250 | DRSC04455 | 111 | 136 | – | – |
| CG14982 | DRSC08440 | 83.6 | 83.6 | – | – |
| CG14982 | DRSC23022 | 98.8 | 146 | – | – |
| Teh1 (tipE homolog 1) | DRSC14544 | 165 | 80.2 | – | – |
| CG5276 | DRSC15759 | 126 | 133 | – | – |
| Atf-2 + veg (retired record) | DRSC04130 | 240 | 82.8 | – | – |
| Atf-2 + veg (retired record) | DRSC04413 | 62.9 | 100 | – | – |
| Ubc6 (Ubiquitin conjugating enzyme 6) | DRSC12370 | 78.7 (active) | 92 | – | – |
| CG5860 | DRSC15896 | 132 | 177 | – | – |
| CG16904 | DRSC15161 | 104 | 144 | – | – |
| CG33189 | DRSC21427 | 183 | 89.5 | – | – |
| Fer3 (48 related 3) | DRSC16133 | 123 | 172 | – | – |
| CG13877 + pyx | DRSC08347 | 91.5 | 140 | – | – |
| PPO1 (Prophenoloxidase 1) | DRSC05929 | 177 | 166 | – | – |
| SP1173 | DRSC11277 | 65 (active) | 85.5 | – | – |
| eloF (elongase F) | DRSC15162 | 144 | 96.7 | – | – |
| ppk27 (pickpocket 27) | DRSC08168 | 112 | 136 | – | – |
| ppk27 (pickpocket 27) | DRSC22211 | 76.9 | 195 | – | – |
